Experimental data taken from article PMC3024319.
Where two headings read alike, the source gives them in different places. No constants are given. Whether binding was seen depends on the method and setting. In cells and extracts the contact can be indirect. Some binding calls cover weakened binding; strength is not graded here. Tags and fused reporters may be left off the sequences shown. Blank lines part the entries; values can stand above or below the molecule they belong to.

The chains behind the UniProt entries cited, without tags or fusion partners.
UniProt Q07157: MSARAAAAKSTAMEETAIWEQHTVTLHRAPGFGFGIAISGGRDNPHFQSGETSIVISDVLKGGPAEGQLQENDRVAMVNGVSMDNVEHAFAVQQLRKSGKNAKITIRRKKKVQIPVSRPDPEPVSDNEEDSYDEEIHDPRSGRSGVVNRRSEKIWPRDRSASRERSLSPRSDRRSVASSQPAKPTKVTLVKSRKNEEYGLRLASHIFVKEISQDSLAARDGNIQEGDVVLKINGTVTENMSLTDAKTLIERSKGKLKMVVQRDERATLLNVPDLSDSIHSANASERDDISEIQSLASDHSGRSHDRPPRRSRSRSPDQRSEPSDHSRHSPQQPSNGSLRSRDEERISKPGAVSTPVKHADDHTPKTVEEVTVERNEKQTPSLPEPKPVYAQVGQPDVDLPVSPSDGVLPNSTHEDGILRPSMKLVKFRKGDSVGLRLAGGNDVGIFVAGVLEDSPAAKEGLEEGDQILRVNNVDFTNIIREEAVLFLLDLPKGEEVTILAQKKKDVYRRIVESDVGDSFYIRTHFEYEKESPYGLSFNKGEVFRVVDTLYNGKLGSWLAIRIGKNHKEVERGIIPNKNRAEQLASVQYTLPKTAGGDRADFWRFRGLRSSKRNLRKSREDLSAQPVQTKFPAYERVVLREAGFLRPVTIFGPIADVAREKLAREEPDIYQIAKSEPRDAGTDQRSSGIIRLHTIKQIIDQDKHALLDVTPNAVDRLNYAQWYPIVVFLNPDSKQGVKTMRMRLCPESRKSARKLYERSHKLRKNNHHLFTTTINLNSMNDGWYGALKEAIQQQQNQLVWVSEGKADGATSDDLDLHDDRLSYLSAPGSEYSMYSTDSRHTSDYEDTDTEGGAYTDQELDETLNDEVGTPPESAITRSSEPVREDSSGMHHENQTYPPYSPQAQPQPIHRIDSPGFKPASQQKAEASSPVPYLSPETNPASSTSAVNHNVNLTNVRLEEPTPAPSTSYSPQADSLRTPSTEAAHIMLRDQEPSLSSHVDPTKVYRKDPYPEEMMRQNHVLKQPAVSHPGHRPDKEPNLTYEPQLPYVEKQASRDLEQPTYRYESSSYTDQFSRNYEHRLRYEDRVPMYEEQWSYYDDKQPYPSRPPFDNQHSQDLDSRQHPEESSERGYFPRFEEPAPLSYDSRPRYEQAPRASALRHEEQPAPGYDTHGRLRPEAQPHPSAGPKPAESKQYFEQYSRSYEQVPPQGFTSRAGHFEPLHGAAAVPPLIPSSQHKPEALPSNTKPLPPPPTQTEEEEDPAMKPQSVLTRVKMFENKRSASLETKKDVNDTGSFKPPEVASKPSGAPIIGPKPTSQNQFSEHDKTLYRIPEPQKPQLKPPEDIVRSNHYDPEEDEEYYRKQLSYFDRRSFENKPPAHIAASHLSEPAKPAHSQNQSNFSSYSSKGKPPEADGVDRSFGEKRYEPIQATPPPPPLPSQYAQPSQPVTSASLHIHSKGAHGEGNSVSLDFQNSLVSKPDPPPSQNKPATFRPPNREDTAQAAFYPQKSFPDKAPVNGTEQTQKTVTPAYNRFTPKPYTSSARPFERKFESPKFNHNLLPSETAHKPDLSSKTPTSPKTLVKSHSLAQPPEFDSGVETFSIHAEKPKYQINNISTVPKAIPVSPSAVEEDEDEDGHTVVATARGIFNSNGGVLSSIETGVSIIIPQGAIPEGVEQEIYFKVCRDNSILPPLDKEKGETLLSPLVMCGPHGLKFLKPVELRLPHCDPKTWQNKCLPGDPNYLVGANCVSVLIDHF

Columns and labels:
Experiment in all cases: co-IP; whole cell lysates (400 ug total protein) of w-Bves, parental HCE and t-Bves cells precipitated with Flag antibody (Pierce Seize X Protein G Immunoprecipitation Kit); Western blot for Bves (antibody 846) and ZO-1
[1] = biological target: T1, Flag-tagged chick Bves truncated at aa214 (t-Bves) (chicken) (UniProt Q9DG23)
T1 sequence: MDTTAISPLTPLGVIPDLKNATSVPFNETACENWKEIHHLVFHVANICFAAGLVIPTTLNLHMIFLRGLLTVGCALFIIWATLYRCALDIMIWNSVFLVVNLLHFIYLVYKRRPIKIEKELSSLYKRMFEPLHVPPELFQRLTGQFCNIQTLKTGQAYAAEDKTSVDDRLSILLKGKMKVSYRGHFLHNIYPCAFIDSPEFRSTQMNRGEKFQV

[2] = biological target: T2, Flag-tagged full length chicken Bves (w-Bves) (chicken) (UniProt Q9DG23)
T2 sequence: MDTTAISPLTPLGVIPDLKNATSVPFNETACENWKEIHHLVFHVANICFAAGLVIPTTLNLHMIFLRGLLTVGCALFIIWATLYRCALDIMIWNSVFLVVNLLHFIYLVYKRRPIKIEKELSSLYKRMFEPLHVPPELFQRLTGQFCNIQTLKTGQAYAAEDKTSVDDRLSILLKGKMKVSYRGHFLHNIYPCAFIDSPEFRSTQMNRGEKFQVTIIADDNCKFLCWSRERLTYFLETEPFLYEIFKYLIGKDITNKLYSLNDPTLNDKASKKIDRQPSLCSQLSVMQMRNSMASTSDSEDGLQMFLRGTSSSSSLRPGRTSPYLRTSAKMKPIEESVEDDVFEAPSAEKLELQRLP

[3] = biological target: T1, Flag-tagged chick Bves truncated at aa214 (t-Bves) (chicken); remark: listed apart in the source
[4] = biological target: T2, Flag-tagged full length chicken Bves (w-Bves) (chicken); remark: listed apart in the source

binding [1]: no binding
binding [2]: binds
Molecule: ZO-1 (from UniProt Q07157 1-1748)

binding [3]: binds
binding [4]: binds
B1: endogenous human Bves (protein, UniProt Q8NE79 1-360)
chain: MNYTESSPLRESTAIGFTPELESIIPVPSNKTTCENWREIHHLVFHVANICFAVGLVIPTTLHLHMIFLRGMLTLGCTLYIVWATLYRCALDIMIWNSVFLGVNILHLSYLLYKKRPVKIEKELSGMYRRLFEPLRVPPDLFRRLTGQFCMIQTLKKGQTYAAEDKTSVDDRLSILLKGKMKVSYRGHFLHNIYPCAFIDSPEFRSTQMHKGEKFQVTIIADDNCRFLCWSRERLTYFLESEPFLYEIFRYLIGKDITNKLYSLNDPTLNDKKAKKLEHQLSLCTQISMLEMRNSIASSSDSDDGLHQFLRGTSSMSSLHVSSPHQRASAKMKPIEEGAEDDDDVFEPASPNTLKVHQLP
